Among the data in patent US20190338002A1 (Pieris, published 2019) are binding values, retold here.

Results are given in words; binding and its absence hold for the method and conditions named.

For test [1], the target named is T1, rat alpha CGRP (SEQ ID NO: 82) (rat).
T1 peptide: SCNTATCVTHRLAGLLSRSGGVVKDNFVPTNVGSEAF
The test is described as follows: SPR Biacore 37 °C, hNGAL wildtype captured as ligand, ra CGRP (1-37) injected; run 130208_NAN-DS-047 [contd]. For orientation: SPR reads the build-up and loss of mass on a sensor chip optically.

Test [2] addresses T2, human alpha CGRP (SEQ ID NO: 80) (human, not fully specified).
T2 peptide: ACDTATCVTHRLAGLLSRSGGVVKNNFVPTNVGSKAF
Description: SPR Biacore 37 °C, hNGAL wildtype captured as ligand, ha CGRP (1-37) injected; run 130208_NAN-DS-047 [contd].

The target in test [3] is T3, human beta CGRP (SEQ ID NO: 81) (human, not fully specified).
T3 peptide: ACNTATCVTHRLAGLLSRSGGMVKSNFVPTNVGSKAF
The test is described as follows: SPR Biacore 37 °C, hNGAL wildtype captured as ligand, hb CGRP (1-37) injected; run 130301_NAN-DS-049.

Test [4] has as its target T4, rat beta CGRP (SEQ ID NO: 83) (rat, not fully specified).
T4 peptide: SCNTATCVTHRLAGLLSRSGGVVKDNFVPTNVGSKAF
Description: SPR Biacore 37 °C, hNGAL wildtype captured as ligand, rb CGRP (1-37) injected; run 130301_NAN-DS-049.

For test [5], the target named is T2, human alpha CGRP (SEQ ID NO: 80). Description: SPR Biacore 37 °C, hNGAL wildtype captured as ligand, ha CGRP (1-37) injected; run 130301_NAN-DS-049.
For test [6] the target is unchanged. Description: SPR, Biacore T200, 37 C.
For test [7], the target named is T1, rat alpha CGRP (SEQ ID NO: 82). Description: SPR, Biacore T200, 37 C.
Test [8] has as its target T3, human beta CGRP (SEQ ID NO: 81). Description: SPR, Biacore T200, 37 C.
In test [9] the target is T4, rat beta CGRP (SEQ ID NO: 83). Description: SPR, Biacore T200, 37 C.
Test [10] shares this target. The test is described as follows: SPR Biacore 37 °C, hNGAL wildtype captured as ligand, rb CGRP (1-37) injected; run 130208_NAN-DS-047 [contd].
Test [11] concerns the target T3, human beta CGRP (SEQ ID NO: 81). The test is described as follows: SPR Biacore 37 °C, hNGAL wildtype captured as ligand, hb CGRP (1-37) injected; run 130208_NAN-DS-047 [contd].
Test [12] addresses T1, rat alpha CGRP (SEQ ID NO: 82). Description: SPR Biacore 37 °C, hNGAL wildtype captured as ligand, ra CGRP (1-37) injected; run 130301_NAN-DS-049.

B1: hNGAL wildtype (SEQ ID NO:1) (other)
chain: QDSTSDLIPAPPLSKVPLQQNFQDNQFHGKWYVVGLAGNAILREDKDPQKMYATIYELKEDKSYNVTSVLFRKKKCDYWIRTFVPGSQPGEFTLGNIKSYPGLTSYLVRVVSTNYNQHAMVFFKKVSQNREYFKITLYGRTKELTSELKENFIRFSKSLGLPENHIVFPVPIDQCIDG
notes: also called human lipocalin 2; human Lcn 2
With B1, the binding result in test [1] is “no binding (tested: 30 nM (not printed on the sheet))”; in test [2], “no binding (tested: 30 nM (not printed on the sheet))”; in test [3], “no binding (tested: 30 nM (not printed on the sheet))”; in [4] it was “no binding (tested: 30 nM (not printed on the sheet))”; in test [5], “no binding (tested: 30 nM (not printed on the sheet))”; in [6], “no binding”. Also, the binding entry in [7] is recorded as “no binding”; in test [8], “no binding”; in test [9] it was “no binding”; in test [10], “no binding (tested: 30 nM (not printed on the sheet))”; in test [11], “no binding (tested: 30 nM (not printed on the sheet))”; in [12], “no binding (tested: 30 nM (not printed on the sheet))”.
